No constants are given. Whether binding was seen depends on the method and setting. In cells and extracts the contact can be indirect. Here binding means that the protein was enriched with, or labelled near, the bait; the list need not be complete.
B1: DexH-box helicase 30 (DHX30) (protein, UniProt Q7L2E3 1-1194)
chain: MFSLDSFRKDRAQHRQRQCKLPPPRLPPMCVNPTPGGTISRASRDLLKEFPQPKNLLNSVIGRALGISHAKDKLVYVHTNGPKKKKVTLHIKWPKSVEVEGYGSKKIDAERQAAAAACQLFKGWGLLGPRNELFDAAKYRVLADRFGSPADSWWRPEPTMPPTSWRQLNPESIRPGGPGGLSRSLGREEEEDEEEELEEGTIDVTDFLSMTQQDSHAPLRDSRGSSFEMTDDDSAIRALTQFPLPKNLLAKVIQIATSSSTAKNLMQFHTVGTKTKLSTLTLLWPCPMTFVAKGRRKAEAENKAAALACKKLKSLGLVDRNNEPLTHAMYNLASLRELGETQRRPCTIQVPEPILRKIETFLNHYPVESSWIAPELRLQSDDILPLGKDSGPLSDPITGKPYVPLLEAEEVRLSQSLLELWRRRGPVWQEAPQLPVDPHRDTILNAIEQHPVVVISGDTGCGKTTRIPQLLLERYVTEGRGARCNVIITQPRRISAVSVAQRVSHELGPSLRRNVGFQVRLESKPPSRGGALLFCTVGILLRKLQSNPSLEGVSHVIVDEVHERDVNTDFLLILLKGLQRLNPALRLVLMSATGDNERFSRYFGGCPVIKVPGFMYPVKEHYLEDILAKLGKHQYLHRHRHHESEDECALDLDLVTDLVLHIDARGEPGGILCFLPGWQEIKGVQQRLQEALGMHESKYLILPVHSNIPMMDQKAIFQQPPVGVRKIVLATNIAETSITINDIVHVVDSGLHKEERYDLKTKVSCLETVWVSRANVIQRRGRAGRCQSGFAYHLFPRSRLEKMVPFQVPEILRTPLENLVLQAKIHMPEKTAVEFLSKAVDSPNIKAVDEAVILLQEIGVLDQREYLTTLGQRLAHISTDPRLAKAIVLAAIFRCLHPLLVVVSCLTRDPFSSSLQNRAEVDKVKALLSHDSGSDHLAFVRAVAGWEEVLRWQDRSSRENYLEENLLYAPSLRFIHGLIKQFSENIYEAFLVGKPSDCTLASAQCNEYSEEEELVKGVLMAGLYPNLIQVRQGKVTRQGKFKPNSVTYRTKSGNILLHKSTINREATRLRSRWLTYFMAVKSNGSVFVRDSSQVHPLAVLLLTDGDVHIRDDGRRATISLSDSDLLRLEGDSRTVRLLKELRRALGRMVERSLRSELAALPPSVQEEHGQLLALLAELLRGPCGSFDVRKTADD
B2: UP-frameshift-1 (UPF1) (protein, UniProt Q92900 1-1129)
chain: MSVEAYGPSSQTLTFLDTEEAELLGADTQGSEFEFTDFTLPSQTQTPPGGPGGPGGGGAGGPGGAGAGAAAGQLDAQVGPEGILQNGAVDDSVAKTSQLLAELNFEEDEEDTYYTKDLPIHACSYCGIHDPACVVYCNTSKKWFCNGRGNTSGSHIVNHLVRAKCKEVTLHKDGPLGETVLECYNCGCRNVFLLGFIPAKADSVVVLLCRQPCASQSSLKDINWDSSQWQPLIQDRCFLSWLVKIPSEQEQLRARQITAQQINKLEELWKENPSATLEDLEKPGVDEEPQHVLLRYEDAYQYQNIFGPLVKLEADYDKKLKESQTQDNITVRWDLGLNKKRIAYFTLPKTDSGNEDLVIIWLRDMRLMQGDEICLRYKGDLAPLWKGIGHVIKVPDNYGDEIAIELRSSVGAPVEVTHNFQVDFVWKSTSFDRMQSALKTFAVDETSVSGYIYHKLLGHEVEDVIIKCQLPKRFTAQGLPDLNHSQVYAVKTVLQRPLSLIQGPPGTGKTVTSATIVYHLARQGNGPVLVCAPSNIAVDQLTEKIHQTGLKVVRLCAKSREAIDSPVSFLALHNQIRNMDSMPELQKLQQLKDETGELSSADEKRYRALKRTAERELLMNADVICCTCVGAGDPRLAKMQFRSILIDESTQATEPECMVPVVLGAKQLILVGDHCQLGPVVMCKKAAKAGLSQSLFERLVVLGIRPIRLQVQYRMHPALSAFPSNIFYEGSLQNGVTAADRVKKGFDFQWPQPDKPMFFYVTQGQEEIASSGTSYLNRTEAANVEKITTKLLKAGAKPDQIGIITPYEGQRSYLVQYMQFSGSLHTKLYQEVEIASVDAFQGREKDFIILSCVRANEHQGIGFLNDPRRLNVALTRARYGVIIVGNPKALSKQPLWNHLLNYYKEQKVLVEGPLNNLRESLMQFSKPRKLVNTINPGARFMTTAMYDAREAIIPGSVYDRSSQGRPSSMYFQTHDQIGMISAGPSHVAAMNIPIPFNLVMPPMPPPGYFGQANGPAAGRGTPKGKTGRGGRQKNRFGLPGPSQTNLPNSQASQDVASQPFSQGALTQGYISMSQPSQMSQPGLSQPELSQDSYLGDEFKSQIDVALSQDSTYQGERAYQHGGVTGLSQY

Molecular target: NF90-FLAG-HA
Test: affinity purification with mass spectrometry; tandem immunoprecipitation (Flag then HA, peptide elution) from 10 mg of cytoplasmic extract of HEK293T stably overexpressing NF90-FLAG-HA; mock HEK293T as control

| Binder | binding |
| --- | --- |
| B1 | binds |
| B2 | binds |
